Measurements reported in PubChem BioAssay AID1259424 (University of Nebraska Medical Center, 2018).
The whole screen tested about 14,000 reagents; this is an unselected part. 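Higher correlation or smaller distance means closer resemblance to KSR1 loss; control wells, including KSR1 knockdowns, recur on many plates.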 The record does not give: the time to read-out.

Aim: 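Find knockdowns that reproduce the expression shifts seen after KSR1 loss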 (primary screen)
Cells: human HCT116 colon cancer cells
Reagent: siRNA pool against human genes, 50 nM
Read-out: 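Log2 levels of six mRNAs (branched-DNA multiplex), adjusted by two reference genes and the non-targeting median, then scored against the average KSR1 knockdown pattern as Pearson r and euclidean distance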
Direction: mean correlation with KSR1 profile and KSR1 correlation: higher = expression change more like KSR1 knockdown; mean distance from KSR1 profile: higher = expression change less like KSR1 knockdown

| target | mean correlation with KSR1 profile | mean distance from KSR1 profile | KSR1 correlation, replicate 1 | KSR1 correlation, replicate 2 | KSR1 correlation, replicate 3 |
| --- | --- | --- | --- | --- | --- |
| MRPL36 (mitochondrial ribosomal protein L36) | -0.504 | 1.86 | -0.572 | -0.554 | -0.411 |
| CD27 (CD27 molecule) | -0.153 | 1.5 | 0.00786 | -0.00121 | -0.492 |
| CSRNP3 (cysteine and serine rich nuclear protein 3) | 0.182 | 1.74 | 0.221 | 0.0869 | -0.0683 |
| HMBOX1 (homeobox containing 1) | -0.0722 | 2.03 | 0.15 | -0.292 | -0.0312 |
| USP46 (ubiquitin specific peptidase 46) | 0.251 | 0.984 | 0.219 | -0.206 | 0.51 |
| FCMR (Fc mu receptor) | 0.496 | 1.97 | 0.444 | 0.0902 | 0.697 |
| LDAF1 (lipid droplet assembly factor 1) | 0.121 | 1.33 | 0.0315 | 0.0949 | 0.375 |
| CSHL1 (chorionic somatomammotropin hormone like 1) | -0.736 | 2.53 | -0.641 | -0.808 | -0.765 |
| RPL31 (ribosomal protein L31) | -0.138 | 4.5 | -0.146 | 0.12 | -0.617 |
| C8A (complement C8 alpha chain) | -0.491 | 1.93 | -0.666 | -0.488 | -0.499 |
| MYRF (myelin regulatory factor) | -0.749 | 2.23 | -0.648 | -0.7 | -0.861 |
| PAPOLA (poly(A) polymerase alpha) | -0.189 | 1.48 | 0.104 | -0.046 | -0.345 |
| RPIA (ribose 5-phosphate isomerase A) | -0.538 | 2.33 | -0.373 | -0.549 | -0.528 |
| HOXD4 (homeobox D4) | -0.514 | 1.58 | 0.502 | -0.335 | -0.537 |
| NBL1 (NBL1, DAN family BMP antagonist) | -0.377 | 1.59 | -0.338 | -0.202 | -0.399 |
| SOS2 (SOS Ras/Rho guanine nucleotide exchange factor 2) | -0.354 | 2.2 | -0.288 | -0.423 | -0.409 |
| PITPNM2 (phosphatidylinositol transfer protein membrane associated 2) | -0.357 | 2.59 | -0.217 | -0.626 | -0.344 |
| COL2A1 (collagen type II alpha 1 chain) | 0.179 | 2.55 | 0.0127 | 0.115 | 0.25 |
| NAA40 (N-alpha-acetyltransferase 40, NatD catalytic subunit) | 0.155 | 1.88 | 0.201 | 0.324 | 0.00619 |
| DICER1 (dicer 1, ribonuclease III) | -0.275 | 3.46 | -0.291 | -0.217 | -0.231 |
| F13A1 (coagulation factor XIII A chain) | -0.116 | 2.09 | -0.156 | -0.179 | -0.484 |
| ARID3B (AT-rich interaction domain 3B) | 0.129 | 2.3 | 0.224 | -0.0351 | 0.373 |
| PPIP5K2 (diphosphoinositol pentakisphosphate kinase 2) | -0.165 | 2.01 | -0.297 | -0.163 | -0.219 |
| HMMR (hyaluronan mediated motility receptor) | 0.669 | 1.12 | 0.701 | 0.641 | 0.711 |
| REEP2 (receptor accessory protein 2) | -0.644 | 4.07 | -0.837 | -0.499 | 0.307 |
| SLC38A3 | -0.664 | 3.75 | -0.674 | -0.718 | -0.475 |
| VRTN (vertebrae development associated) | 0.37 | 1.78 | 0.379 | 0.19 | 0.322 |
| CHCHD3 (coiled-coil-helix-coiled-coil-helix domain containing 3) | 0.15 | 2.14 | 0.248 | 0.0178 | -0.0196 |
| TWSG1 (twisted gastrulation BMP signaling modulator 1) | 0.123 | 2.98 | -0.118 | 0.113 | 0.525 |
| SIM1 (SIM bHLH transcription factor 1) | 0.551 | 2.13 | 0.624 | 0.444 | 0.48 |
| PDE2A (phosphodiesterase 2A) | 0.182 | 1.55 | 0.185 | 0.107 | 0.245 |
| PLEC (plectin) | 0.188 | 1.19 | 0.344 | 0.174 | -0.171 |
| ITGA3 (integrin subunit alpha 3) | 0.244 | 0.984 | 0.161 | 0.19 | 0.473 |

Laid out differently: entries from further up
{"target": "MYRF (myelin regulatory factor)", "mean correlation with KSR1 profile": -0.749, "mean distance from KSR1 profile": 2.23, "KSR1 correlation, replicate 1": -0.648, "KSR1 correlation, replicate 2": -0.7, "KSR1 correlation, replicate 3": -0.861}
{"target": "PAPOLA (poly(A) polymerase alpha)", "mean correlation with KSR1 profile": -0.189, "mean distance from KSR1 profile": 1.48, "KSR1 correlation, replicate 1": 0.104, "KSR1 correlation, replicate 2": -0.046, "KSR1 correlation, replicate 3": -0.345}

Additional results follow.
| target | mean correlation with KSR1 profile | mean distance from KSR1 profile | KSR1 correlation, replicate 1 | KSR1 correlation, replicate 2 | KSR1 correlation, replicate 3 |
| --- | --- | --- | --- | --- | --- |
| ZNF432 (zinc finger protein 432) | -0.0908 | 1.66 | -0.0605 | 0.0917 | 0.0413 |
| GAB2 (GRB2 associated binding protein 2) | -0.0916 | 1.68 | 0.354 | -0.174 | -0.307 |
| HPCAL4 (hippocalcin like 4) | -0.683 | 3.17 | -0.712 | -0.5 | -0.612 |
| TMEM267 (transmembrane protein 267) | -0.616 | 1.84 | -0.858 | -0.318 | -0.55 |
| LMF1 (lipase maturation factor 1) | 0.379 | 1.89 | 0.0769 | 0.15 | 0.343 |
| FLRT3 (fibronectin leucine rich transmembrane protein 3) | -0.191 | 1.24 | 0.229 | -0.321 | -0.627 |
| RAB28 (RAB28, member RAS oncogene family) | 0.699 | 0.622 | 0.419 | 0.777 | 0.517 |
| H6PD (hexose-6-phosphate dehydrogenase/glucose 1-dehydrogenase) | 0.3 | 2.04 | 0.373 | 0.386 | 0.287 |
| HACE1 | -0.607 | 2.6 | -0.534 | -0.31 | -0.363 |
| APOA2 (apolipoprotein A2) | 0.625 | 0.854 | 0.655 | 0.443 | 0.0724 |
| PACSIN1 (protein kinase C and casein kinase substrate in neurons 1) | 0.0886 | 1.31 | 0.448 | 0.534 | -0.683 |
| LCK (LCK proto-oncogene, Src family tyrosine kinase) | 0.238 | 1.79 | 0.561 | 0.463 | -0.252 |
| TCFL5 (transcription factor like 5) | 0.954 | 0.989 | 0.852 | 0.904 | 0.952 |
| MORC1 (MORC family CW-type zinc finger 1) | -0.25 | 1.93 | -0.361 | -0.509 | -0.311 |
| CTSD (cathepsin D) | 0.242 | 1.77 | 0.689 | 0.494 | -0.103 |
| MEIS3 (Meis homeobox 3) | 0.129 | 2.55 | 0.153 | 0.232 | 0.293 |
| S100G (S100 calcium binding protein G) | 0.0673 | 1.53 | -0.0934 | 0.14 | -0.0453 |
